Assay results published in paper PMC5882309.
Results are given in words; binding and its absence hold for the method and conditions named. In cells and extracts the contact can be indirect. Some binding calls cover weakened binding; strength is not graded here.

Chains of the proteins cited; added tags and fusions are not shown.
UniProt P05412: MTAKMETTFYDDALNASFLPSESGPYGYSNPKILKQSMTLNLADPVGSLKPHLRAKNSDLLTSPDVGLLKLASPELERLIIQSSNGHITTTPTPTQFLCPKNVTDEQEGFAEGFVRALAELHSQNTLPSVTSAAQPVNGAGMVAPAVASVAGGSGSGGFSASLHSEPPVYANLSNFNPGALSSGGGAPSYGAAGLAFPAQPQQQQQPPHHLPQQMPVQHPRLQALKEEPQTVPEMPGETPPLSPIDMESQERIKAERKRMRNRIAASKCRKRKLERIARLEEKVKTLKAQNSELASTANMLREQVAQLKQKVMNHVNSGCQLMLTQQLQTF
UniProt P05627: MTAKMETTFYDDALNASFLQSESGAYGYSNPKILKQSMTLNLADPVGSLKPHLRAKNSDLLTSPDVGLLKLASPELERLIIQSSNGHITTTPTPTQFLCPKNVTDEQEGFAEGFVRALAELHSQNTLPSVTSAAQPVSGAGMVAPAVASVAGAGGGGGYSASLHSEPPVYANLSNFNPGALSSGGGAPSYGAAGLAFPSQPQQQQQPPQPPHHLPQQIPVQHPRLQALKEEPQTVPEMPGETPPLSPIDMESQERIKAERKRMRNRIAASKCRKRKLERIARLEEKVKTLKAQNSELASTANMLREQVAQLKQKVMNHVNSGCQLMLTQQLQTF

Key:
Assay in all cases: co-IP; 5x10^6 cells lysed in 1x RIPA buffer with protease inhibitors; 500 ug lysate with 2 ug anti-BATF3 antibody (3H1) for 1 hour at 4°C, then protein A/G-agarose overnight at 4°C; Western blot for BATF3, JUN and Hsp70
[1] = biological target: T1, human BATF3, retrovirally expressed in HL cell line L428 (human) (UniProt Q9NR55)
T1 sequence: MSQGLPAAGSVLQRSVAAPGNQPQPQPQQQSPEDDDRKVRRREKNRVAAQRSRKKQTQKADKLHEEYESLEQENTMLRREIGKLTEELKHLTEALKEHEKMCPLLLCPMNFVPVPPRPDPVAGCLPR

[2] = biological target: T2, basic leucine zipper protein ATF-like 3 (BATF3), endogenous in HL cell line L428 (human (endogenous in L428)) (UniProt Q9NR55)
T2 sequence: T1 sequence

[3] = biological target: T3, human BATF3, retrovirally expressed in murine BATF3-induced B-cell tumor cell lines (T1-T3) (human) (UniProt Q9NR55)
T3 sequence: T1 sequence

binding [1] | binding [2] | binding [3] | Substance
binds | binds | – | JUN, endogenous in HL cell line L428 (from UniProt P05412 1-331)
– | – | binds | JUN, endogenous in murine BATF3-induced B-cell tumor cell lines (T1-T3) (from UniProt P05627 1-334)
